In paper PMC4005653:
Results are given in words; binding and its absence hold for the method and conditions named. Binding seen in cells or lysates may run through a third protein. Some entries that bind do so weakly or less than the wild type.

The chains behind the UniProt entries cited, without tags or fusion partners.
UniProt P17096: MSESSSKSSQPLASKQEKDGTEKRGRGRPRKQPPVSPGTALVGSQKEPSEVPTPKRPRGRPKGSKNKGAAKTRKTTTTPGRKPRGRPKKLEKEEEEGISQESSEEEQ
UniProt Q9C0K0: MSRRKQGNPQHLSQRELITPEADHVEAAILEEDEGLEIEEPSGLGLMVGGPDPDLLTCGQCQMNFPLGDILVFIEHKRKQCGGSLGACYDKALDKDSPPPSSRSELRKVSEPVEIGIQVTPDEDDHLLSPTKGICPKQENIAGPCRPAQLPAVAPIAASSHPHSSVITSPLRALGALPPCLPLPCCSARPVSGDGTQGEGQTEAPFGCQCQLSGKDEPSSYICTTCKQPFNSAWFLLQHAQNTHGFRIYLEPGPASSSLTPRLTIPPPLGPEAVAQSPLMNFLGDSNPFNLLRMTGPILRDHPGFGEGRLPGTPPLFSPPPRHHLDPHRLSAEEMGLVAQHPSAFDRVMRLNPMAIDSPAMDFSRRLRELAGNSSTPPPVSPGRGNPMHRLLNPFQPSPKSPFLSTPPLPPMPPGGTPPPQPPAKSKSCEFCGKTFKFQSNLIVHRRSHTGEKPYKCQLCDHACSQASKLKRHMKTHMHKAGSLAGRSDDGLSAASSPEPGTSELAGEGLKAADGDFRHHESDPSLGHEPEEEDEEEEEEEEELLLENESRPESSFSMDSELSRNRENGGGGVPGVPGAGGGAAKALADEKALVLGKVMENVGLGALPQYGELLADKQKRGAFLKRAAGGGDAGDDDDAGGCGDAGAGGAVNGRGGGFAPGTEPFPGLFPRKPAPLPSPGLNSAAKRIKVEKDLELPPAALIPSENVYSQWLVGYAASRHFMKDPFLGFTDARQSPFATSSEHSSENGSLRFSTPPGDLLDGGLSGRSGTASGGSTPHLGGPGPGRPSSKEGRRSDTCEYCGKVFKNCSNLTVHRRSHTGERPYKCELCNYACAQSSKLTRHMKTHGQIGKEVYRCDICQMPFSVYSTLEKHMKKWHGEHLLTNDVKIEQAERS

Columns and labels:
HMGA1-FLAG [1] = target: HMGA1-FLAG (UniProt P17096); assay: co-IP; HMGA1-FLAG immunoprecipitated with M2 anti-FLAG agarose from nuclear extracts of transiently transfected HEK293 cells, in the presence of RNase A; western blot for endogenous proteins; mock-transfected cells as control
HMGA1-FLAG [2] = target: HMGA1-FLAG (UniProt P17096); assay: co-IP; HMGA1-FLAG immunoprecipitated with M2 anti-FLAG agarose from nuclear extracts of transiently transfected HEK293 cells, in the absence of RNase A; western blot for endogenous proteins; mock-transfected cells as control
[3] = target: endogenous HMGA1 (human (endogenous in human microglial cells)) (UniProt P17096); assay: co-IP; endogenous HMGA1 immunopurified from nuclear extracts of microglial cells with a specific anti-HMGA1 antibody (Abcam); western blot for endogenous CTIP2; boiled anti-HMGA1 IgG as control

binding (HMGA1-FLAG [1]): binds
binding (HMGA1-FLAG [2]): binds
binding [3]: binds
Substance: chicken ovalbumin upstream promoter transcription factor (COUP-TF) interacting protein 2 (CTIP2) (from UniProt Q9C0K0 1-894)
